# Some of the results follow. Single values are uncertain, as repeats are few or missing.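 The apoptosis fraction was the count of cleaved-PARP antibody-stained nuclei relative to all DNA-stained nuclei, imaged in 1,536-well plates. Screening doses were set so most cells survived, and baseline and induced cleaved-PARP levels vary greatly across cell lines.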
# Key:
# Experiment in all cases: cleaved PARP positive nuclei fraction relative to DMSO control; melanoma cells; higher = more apoptosis
# Conditions in all cases: library dose: low library concentration; 72 h
# WM115 = system: WM115
# WM1716 = system: WM1716
# WM1745 = system: WM1745
# WM3526 = system: WM3526
# WM3619 = system: WM3619
# WM451Lu = system: WM451Lu
SMILES,cleaved PARP positive nuclei fraction (WM115),cleaved PARP positive nuclei fraction (WM1716),cleaved PARP positive nuclei fraction (WM1745),cleaved PARP positive nuclei fraction (WM3526),cleaved PARP positive nuclei fraction (WM3619),cleaved PARP positive nuclei fraction (WM451Lu)
"CC1(C)NC(=O)N(c2ccc([N+](=O)[O-])c(C(F)(F)F)c2)C1=O [nilutamide] + CC(C)(C)c1cnc(CSc2cnc(NC(=O)C3CCNCC3)s2)o1 [SNS-032] (first compound 1 µM, partner dose 0.01 µM)",83.1%,96%,107%,27.9%,88.2%,188%
"C[C@@H]1CCN(C(=O)CC#N)C[C@@H]1N(C)c1ncnc2[nH]ccc12 + Cn1cc(/C=C2\C(=O)Nc3cccnc32)c2ccccc21 [GW441756] (first compound 1 µM, partner dose 0.4 µM)",203%,28%,110%,102%,79.8%,105%
"OCCn1cc(-c2cnc3nnn(Cc4ccc5ncccc5c4)c3n2)cn1 + CCc1ccc(CCOc2ccc(CC3SC(=O)NC3=O)cc2)nc1 [pioglitazone] (first compound 1 µM, partner dose 2 µM)",57.7%,69%,119%,143%,508%,86.9%
"COc1cc(Nc2ncc(F)c(Nc3ccc4c(n3)NC(=O)C(C)(C)O4)n2)cc(OC)c1OC [Tamatinib] + O=C(O)C(=O)Nc1sc2c(c1C(=O)O)CCNC2 [TCS401] (first compound 0.4 µM, partner dose 1.66667 µM)",104%,28.5%,173%,92.6%,89%,61.1%
"C=CCNC1=C2C[C@@H](C)C[C@H](OC)[C@H](O)[C@@H](C)/C=C(\C)[C@H](OC(N)=O)[C@@H](OC)/C=C\C=C(/C)C(=O)NC(=CC1=O)C2=O [Tanespimycin] + O=C1NC(=O)/C(=C/c2ccc(-c3ccc(F)cc3O)o2)S1 [AS252424] (first compound 0.002 µM, partner dose 1 µM)",103%,62.2%,110%,85.6%,112%,406%
"Cn1nnc2c(C(N)=O)ncn2c1=O [temozolomide] + OCCn1cc(-c2cnc3nnn(Cc4ccc5ncccc5c4)c3n2)cn1 [PF04217903] (first compound 2 µM, partner dose 1 µM)",68.9%,105%,109%,62.1%,114%,78.4%
"C#Cc1cccc(Nc2ncnc3cc(OCCOC)c(OCCOC)cc23)c1 [erlotinib] + CN(NC(=O)CC(=O)NN(C)C(=S)c1ccccc1)C(=S)c1ccccc1 [STA4783] (first compound 0.8 µM, partner dose 0.006 µM)",122%,160%,149%,263%,113%,140%
"CC1(C)NC(=O)N(c2ccc([N+](=O)[O-])c(C(F)(F)F)c2)C1=O [nilutamide] + NC(=O)Nc1cc(-c2cccc(F)c2)sc1C(=O)N[C@H]1CCCNC1 [AZD7762] (first compound 1 µM, partner dose 0.02 µM)",84.4%,42.7%,80%,103%,123%,179%
"Clc1ccc(Nc2nnc(Cc3ccncc3)c3ccccc23)cc1 [vatalanib] + Cn1cc(/C=C2\C(=O)Nc3cccnc32)c2ccccc21 [GW441756] (first compound 2 µM, partner dose 0.4 µM)",39.6%,110%,114%,61.7%,77.1%,189%
"Cn1nnc2c(C(N)=O)ncn2c1=O [temozolomide] + CN(NC(=O)CC(=O)NN(C)C(=S)c1ccccc1)C(=S)c1ccccc1 [STA4783] (first compound 2 µM, partner dose 0.006 µM)",149%,283%,282%,51.6%,986%,42.5%
"Nc1cccc2c1CN(C1CCC(=O)NC1=O)C2=O (stereo unspecified) [lenalidomide] + COc1ccc2c(c1)CCC1C2CCC2(C)C(NCCCCCCN3C(=O)C=CC3=O)CCC12 [U73122] (first compound 1 µM, partner dose 0.4 µM)",116%,148%,114%,245%,104%,55.5%
"CO[C@@H]1[C@H](N(C)C(=O)c2ccccc2)C[C@H]2O[C@]1(C)n1c3ccccc3c3c4c(c5c6ccccc6n2c5c31)C(=O)NC4 [Midostaurin] + COc1cc2ncnc(Nc3ccc(Oc4ccccc4)cc3)c2cc1OC [SrcI1] (first compound 0.08 µM, partner dose 2 µM)",355%,148%,150%,69.3%,92.5%,93.3%
"Cn1nnc2c(C(N)=O)ncn2c1=O [temozolomide] + O=C(O)c1ccc(-c2c[nH]c3ncc(-c4ccccc4)cc23)cc1C1CCCC1 [GSK650394] (first compound 2 µM, partner dose 0.16 µM)",124%,121%,104%,44.6%,87.8%,236%
"C#Cc1cccc(Nc2ncnc3cc(OCCOC)c(OCCOC)cc23)c1 [erlotinib] + CC1(C)NC(=O)N(c2ccc([N+](=O)[O-])c(C(F)(F)F)c2)C1=O [nilutamide] (first compound 0.8 µM, partner dose 1 µM)",90.8%,76.3%,104%,59.6%,97.2%,146%
"Cc1ccc(NC(=O)c2cccc(N(C)C)c2)cc1NC(=O)c1ccc(O)cc1 + CO[C@@H]1[C@H](N(C)C(=O)c2ccccc2)C[C@H]2O[C@]1(C)n1c3ccccc3c3c4c(c5c6ccccc6n2c5c31)C(=O)NC4 [Midostaurin] (first compound 2 µM, partner dose 0.08 µM)",244%,139%,104%,52.2%,134%,162%
"NC(=O)Nc1cc(-c2cccc(F)c2)sc1C(=O)N[C@H]1CCCNC1 + Cn1cncc1[C@@](N)(c1ccc(Cl)cc1)c1ccc2c(c1)c(-c1cccc(Cl)c1)cc(=O)n2C [tipifarnib] (first compound 0.02 µM, partner dose 0.01 µM)",116%,89.1%,95%,431%,231%,130%
"CC(=O)c1c(C)c2cnc(Nc3ccc(N4CCNCC4)cn3)nc2n(C2CCCC2)c1=O [palbociclib] + O=C(CCCCCCC(=O)Nc1ccccc1)NO [vorinostat] (first compound 0.04 µM, partner dose 0.08 µM)",209%,133%,131%,211%,112%,130%
"C#Cc1cccc(Nc2ncnc3cc(OCCOC)c(OCCOC)cc23)c1 [erlotinib] + Cn1c(Nc2ccc(C(F)(F)F)cc2)nc2cc(Oc3ccnc(-c4ncc(C(F)(F)F)[nH]4)c3)ccc21 [CHIR265] (first compound 0.8 µM, partner dose 0.08 µM)",254%,265%,123%,86.5%,222%,107%
"Cc1nc(Nc2ncc(C(=O)Nc3c(C)cccc3Cl)s2)cc(N2CCN(CCO)CC2)n1 [dasatanib] + C[C@]1(c2nc3c(C(N)=O)cccc3[nH]2)CCCN1 [Veliparib] (first compound 0.004 µM, partner dose 1.4 µM)",91%,291%,156%,74.8%,102%,132%
"CC1(C)NC(=O)N(c2ccc([N+](=O)[O-])c(C(F)(F)F)c2)C1=O [nilutamide] + Cn1cc(/C=C2\C(=O)Nc3cccnc32)c2ccccc21 [GW441756] (first compound 1 µM, partner dose 0.4 µM)",137%,95.8%,103%,72.7%,82.5%,27.8%
"C[C@]1(c2nc3c(C(N)=O)cccc3[nH]2)CCCN1 [Veliparib] + CCN(CC)CCCCNc1ncc2cc(-c3cc(OC)cc(OC)c3)c(NC(=O)NC(C)(C)C)nc2n1 [PD173074] (first compound 1.4 µM, partner dose 0.1 µM)",227%,110%,114%,113%,87%,20.5%
"Cc1cc(N2CCOCC2)cc2[nH]c(-c3c(NC[C@@H](O)c4cccc(Cl)c4)cc[nH]c3=O)nc12 + O=S(=O)(c1ccccc1)N(CC(F)(F)F)c1ccc(C(O)(C(F)(F)F)C(F)(F)F)cc1 [T0901317] (first compound 0.2 µM, partner dose 1.4 µM)",89.8%,112%,143%,133%,121%,169%
"Cc1ccc(NC(=O)c2cccc(N(C)C)c2)cc1NC(=O)c1ccc(O)cc1 + NC(=O)Nc1cc(-c2cccc(F)c2)sc1C(=O)N[C@H]1CCCNC1 [AZD7762] (first compound 2 µM, partner dose 0.02 µM)",167%,101%,111%,80.9%,163%,81.8%
"Nc1cccc2c1CN(C1CCC(=O)NC1=O)C2=O (stereo unspecified) [lenalidomide] + COc1cc(Nc2ncc(F)c(Nc3ccc4c(n3)NC(=O)C(C)(C)O4)n2)cc(OC)c1OC [Tamatinib] (first compound 1 µM, partner dose 0.4 µM)",158%,62%,155%,55.9%,89.4%,56.1%
"Nc1cccc2c1CN(C1CCC(=O)NC1=O)C2=O (stereo unspecified) [lenalidomide] + C=CCn1c(=O)c2cnc(Nc3ccc(N4CCN(C)CC4)cc3)nc2n1-c1cccc(C(C)(C)O)n1 [MK1775] (first compound 1 µM, partner dose 0.02 µM)",120%,119%,138%,108%,87.8%,75.2%
"C[C@]1(c2nc3c(C(N)=O)cccc3[nH]2)CCCN1 [Veliparib] + O=C(CCCCCCC(=O)Nc1ccccc1)NO [vorinostat] (first compound 1.4 µM, partner dose 0.08 µM)",76%,142%,91.2%,62.3%,87.3%,39.2%

# Shown bar-delimited: entries from further up
SMILES | cleaved PARP positive nuclei fraction (WM115) | cleaved PARP positive nuclei fraction (WM1716) | cleaved PARP positive nuclei fraction (WM1745) | cleaved PARP positive nuclei fraction (WM3526) | cleaved PARP positive nuclei fraction (WM3619) | cleaved PARP positive nuclei fraction (WM451Lu)
CC1(C)NC(=O)N(c2ccc([N+](=O)[O-])c(C(F)(F)F)c2)C1=O [nilutamide] + Cn1cc(/C=C2\C(=O)Nc3cccnc32)c2ccccc21 [GW441756] (first compound 1 µM, partner dose 0.4 µM) | 137% | 95.8% | 103% | 72.7% | 82.5% | 27.8%
Cc1cc(N2CCOCC2)cc2[nH]c(-c3c(NC[C@@H](O)c4cccc(Cl)c4)cc[nH]c3=O)nc12 + O=S(=O)(c1ccccc1)N(CC(F)(F)F)c1ccc(C(O)(C(F)(F)F)C(F)(F)F)cc1 [T0901317] (first compound 0.2 µM, partner dose 1.4 µM) | 89.8% | 112% | 143% | 133% | 121% | 169%
